Assay results: the supplement of paper PMC6078165
The reference is the same well before dosing, and untreated signal decays as well.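 Fibroblast labels denote human fibroblasts, mainly primary ones from uterus (C12385, HUF), lung (H6013), bone (Hs27A), adrenal (HADF) and skin (WS1), plus mammary HMF and breast cancer-associated Hs343T. Cancer cells are basal-like or mesenchymal-like triple-negative breast cancer lines. A hit is a response shift exceeding 3x replicate standard deviation. The tissue of the other fibroblasts is not given here.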

System: MDAMB468
Test: relative JC-1 red fluorescence (viability) vs pre-drug, coculture with fibroblast (fraction); higher = more viable cancer cells
Method: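 JC-1 labelled TNBC cells cocultured 1:1 (1,500 cells each) with CellTrace Violet stained primary or stromal fibroblasts in 384-well plates in FluoroBrite medium, treated with one of 42 anticancer drugs at 0.1, 1, 10 or 100 uM. JC-1 red fluorescence (mitochondrial integrity in cancer cells only) was read by plate reader every 8 h for 72 h. Values are normalised to each well's pre-drug value. The stock of one drug was tenfold lower, so its dose labels may be too high.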

CN(C)CCOc1ccc(/C(=C(/CCCl)c2ccccc2)c2ccccc2)cc1 [Toremifene]
relative JC-1 red fluorescence
Conditions	8 h	16 h	24 h	32 h	40 h	48 h	56 h	64 h	72 h
0.1 µM, coculture fibroblast: C12385	0.859	0.766	0.7313	0.673	0.624	0.60188	0.5566	0.5305	0.516
0.1 µM, coculture fibroblast: H6013	0.8694	0.8726	0.8358	0.82132	0.793	0.804	0.779	0.769	0.7361
0.1 µM, coculture fibroblast: H6019	0.803	0.783	0.741	0.681	0.631	0.609	0.565	0.535	0.512
0.1 µM, coculture fibroblast: H6076	0.94	0.966	0.916	0.905	0.824	0.81	0.774	0.7617	0.795
0.1 µM, coculture fibroblast: H6231	0.838	0.946	0.835	0.839	0.795	0.771	0.728	0.703	0.699
0.1 µM, coculture fibroblast: HADF	0.88892	0.838	0.8046	0.7889	0.734	0.732	0.689	0.683	0.648
0.1 µM, coculture fibroblast: HCFa	0.84007	0.824	0.762	0.736	0.667	0.655	0.603	0.566	0.518
0.1 µM, coculture fibroblast: HCPF	0.899	0.912	0.873	0.86	0.787	0.763	0.716	0.71	0.693
0.1 µM, coculture fibroblast: HHSteC	0.874	0.834	0.7935	0.76458	0.7104	0.7036	0.639	0.615	0.566
0.1 µM, coculture fibroblast: HMF	0.8376	0.963	0.879	0.8355	0.762	0.744	0.6848	0.669	0.64
0.1 µM, coculture fibroblast: HPFa	0.956	0.9066	0.869	0.825	0.789	0.78	0.705	0.675	0.592
0.1 µM, coculture fibroblast: HUF	0.9022	0.82	0.766	0.7	0.649	0.627	0.583	0.562	0.548
0.1 µM, coculture fibroblast: Hs5	0.99153	0.955	0.89	0.8653	0.7885	0.7557	0.711	0.669	0.6758
0.1 µM, coculture fibroblast: Hs27A	0.857	0.813	0.744	0.743	0.669	0.65	0.605	0.579	0.543
0.1 µM, coculture fibroblast: Hs343T	0.92	0.94	0.898	0.878	0.804	0.778	0.736	0.728	0.705
0.1 µM, coculture fibroblast: WS1	0.83431	0.744	0.676	0.603	0.555	0.522	0.492	0.465	0.454
1 µM, coculture fibroblast: C12385	0.898	0.8668	0.819	0.779	0.739	0.732	0.686	0.665	0.66
1 µM, coculture fibroblast: H6013	0.91658	0.8862	0.853	0.839	0.801	0.804	0.782	0.77	0.725
1 µM, coculture fibroblast: H6019	0.886	0.834	0.801	0.746	0.706	0.684	0.63	0.598	0.574
1 µM, coculture fibroblast: H6076	0.9658	0.986	0.92	0.927	0.8578	0.839	0.801	0.775	0.8186
1 µM, coculture fibroblast: H6231	0.846	0.953	0.879	0.871	0.815	0.79	0.742	0.711	0.705
1 µM, coculture fibroblast: HADF	0.9201	0.8859	0.8412	0.8336	0.775	0.768	0.72	0.7	0.6499
1 µM, coculture fibroblast: HCFa	0.907	0.8768	0.824	0.802	0.74	0.736	0.689	0.653	0.613
1 µM, coculture fibroblast: HCPF	0.903	0.94	0.869	0.887	0.813	0.788	0.738	0.734	0.725
1 µM, coculture fibroblast: HHSteC	0.916	0.891	0.8445	0.818	0.778	0.779	0.723	0.695	0.647
1 µM, coculture fibroblast: HMF	0.866	0.868	0.9252	0.8969	0.836	0.823	0.775	0.75	0.729
1 µM, coculture fibroblast: HPFa	0.95	0.931	0.872	0.8167	0.782	0.784	0.712	0.684	0.604
1 µM, coculture fibroblast: HUF	0.941	0.855	0.7939	0.715	0.656	0.612	0.567	0.538	0.515
1 µM, coculture fibroblast: Hs5	0.795	0.787	0.975	0.943	0.87	0.836	0.789	0.762	0.775
1 µM, coculture fibroblast: Hs27A	0.8853	0.8334	0.7978	0.7959	0.736	0.721	0.682	0.657	0.614
1 µM, coculture fibroblast: Hs343T	0.9351	0.843	0.948	0.927	0.853	0.8284	0.7748	0.756	0.741
1 µM, coculture fibroblast: WS1	0.8841	0.824	0.757	0.689	0.627	0.5874	0.551	0.523	0.515
10 µM, coculture fibroblast: C12385	0.9296	0.89	0.846	0.822	0.7229	0.77	0.755	0.888	0.847
10 µM, coculture fibroblast: H6013	0.865	0.95	0.834	0.916	0.834	0.854	0.76	0.734	0.789
10 µM, coculture fibroblast: H6019	0.874	0.912	0.939	0.955	0.9118	0.809	0.851	0.949	0.938
10 µM, coculture fibroblast: H6076	0.9469	0.75	0.832	0.752	0.813	0.9085	0.775	0.7155	0.801
10 µM, coculture fibroblast: H6231	0.808	0.793	0.87	0.836	0.751	0.906	0.79	0.804	0.801
10 µM, coculture fibroblast: HADF	0.875	0.9439	0.97	0.915	0.846	0.837	0.803	0.725	0.822
10 µM, coculture fibroblast: HCFa	0.877	0.951	0.823	0.873	0.814	0.84	0.886	0.869	0.8
10 µM, coculture fibroblast: HCPF	0.8928	0.813	0.86	0.8238	0.884	0.828	0.716	0.786	0.842
10 µM, coculture fibroblast: HHSteC	0.907	0.825	0.79	0.853	0.83	0.712	0.84	0.797	0.783
10 µM, coculture fibroblast: HMF	0.867	0.852	0.874	0.799	0.868	0.811	0.826	0.8373	0.713
10 µM, coculture fibroblast: HPFa	0.919	0.89	0.74	0.856	0.793	0.854	0.808	0.839	0.799
10 µM, coculture fibroblast: HUF	0.91	0.897	0.925	0.914	0.934	0.853	0.837	0.9056	0.804
10 µM, coculture fibroblast: Hs5	0.851	0.72	0.8148	0.873	0.7814	0.8658	0.811	0.809	0.815
10 µM, coculture fibroblast: Hs27A	0.867	0.919	0.939	0.844	0.854	0.925	0.859	0.824	0.834
10 µM, coculture fibroblast: Hs343T	0.934	0.798	0.884	0.8	0.873	0.791	0.755	0.761	0.745
10 µM, coculture fibroblast: WS1	0.9299	0.969	0.853	0.841	0.8508	0.817	0.879	0.824	0.896
100 µM, coculture fibroblast: C12385	0.438	0.306	0.246	0.199	0.159	0.144	0.107	0.0805	0.0591
100 µM, coculture fibroblast: H6013	0.555	0.4321	0.383	0.345	0.312	0.2909	0.24	0.2045	0.1488
100 µM, coculture fibroblast: H6019	0.52	0.401	0.36	0.326	0.291	0.274	0.243	0.22	0.207
100 µM, coculture fibroblast: H6076	0.53	0.424	0.393	0.388	0.303	0.278	0.233	0.194	0.225
100 µM, coculture fibroblast: H6231	0.736	0.582	0.52	0.618	0.57	0.504	0.446	0.534	0.466
100 µM, coculture fibroblast: HADF	0.549	0.407	0.356	0.322	0.2881	0.2679	0.2233	0.1949	0.1377
100 µM, coculture fibroblast: HCFa	0.635	0.522	0.464	0.43	0.39	0.373	0.32	0.281	0.223
100 µM, coculture fibroblast: HCPF	0.963	0.969	0.833	0.703	0.72	0.695	0.653	0.638	0.637
100 µM, coculture fibroblast: HHSteC	0.47	0.379	0.331	0.283	0.254	0.245	0.185	0.157	0.11
100 µM, coculture fibroblast: HMF	0.9177	0.9803	0.9416	0.9428	0.86401	0.87	0.833	0.816	0.811
100 µM, coculture fibroblast: HPFa	0.73422	0.617	0.5565	0.4858	0.4615	0.4539	0.378	0.3478	0.2756
100 µM, coculture fibroblast: HUF	0.489	0.339	0.295	0.248	0.212	0.193	0.154	0.131	0.11
100 µM, coculture fibroblast: Hs5	0.86	0.79	0.9682	0.9459	0.86836	0.847	0.821	0.7898	0.82377
100 µM, coculture fibroblast: Hs27A	0.539	0.381	0.325	0.296	0.2639	0.2474	0.2125	0.184	0.131
100 µM, coculture fibroblast: Hs343T	0.701	0.595	0.412	0.396	0.317	0.296	0.255	0.23	0.216
100 µM, coculture fibroblast: WS1	0.4288	0.293	0.245	0.204	0.166	0.141	0.116	0.0921	0.0736
